Earlier results as cited in patent US20080064053A1, “Genotoxicity Testing” (priority 2003, published 2008).

Conditions: in vivo; cited from earlier work

SMILES: Cc1cc(NS(=O)(=O)c2ccc(N)cc2)no1 [sulfamethoxazole]
- cancer data / carcinogenicity: positive
